Measurements from the supplement of paper PMC12067093, “Discovery and optimisation of a covalent ligand for TRIM25 and its application to targeted protein ubiquitination” (Chemical Science, 2025).
The other results are listed elsewhere or left out.

Compound: Cc1cc(ccc1-c1ccccc1)C(=O)N1CCCN(CC1)C(=O)CCl [compound 10]
Experiment: probe-labelled cysteine peptide fold change vs DMSO (competition) (log2 fold change); higher = less target engagement (more negative = stronger competition)
Settings: THP-1, incubation time: 4 h
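Also: competitive profiling in live THP-1 cells: cysteine peptides tagged with an iodoacetamide desthiobiotin (IA-DTB) probe, intensity after compound treatment relative to DMSO-treated cells.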

Target | probe-labelled cysteine peptide fold change (10 µM) | probe-labelled cysteine peptide fold change (50 µM)
CUL1_Q13616_149_RECDEGR (UniProt Q13616) | -0.162 | 0.248
DCLRE1C_Q96SD1_333_DFLSYLCPVNAYPNVIPVGTTMDK (UniProt Q96SD1) | 0.118 | -0.13
CUX1_P39880-9_375_CAELQVR (UniProt P39880) | 0.242 | 0.308
DCAF5_Q96JK2_368_QPGCTGDLDGR (UniProt Q96JK2) | 0.0197 | 0.241
CWC22_Q9HCG8_253_QLCLTASK (UniProt Q9HCG8) | -0.19 | 0.179
CWF19L1_Q69YN2_141_MMLCTTSQFK (UniProt Q69YN2) | 0.102 | -0.00675
CUL4A_Q13619_289_LEEEGDRVITYLDHSTQKPLIACVEK (UniProt Q13619) | -0.202 | -0.571
DCLRE1C_Q96SD1_61_VYLYCSPVTK (UniProt Q96SD1) | -0.11 | 0.165
DCTN4_Q9UJW0_280_CEHNLSKPEFNPTSIK (UniProt Q9UJW0) | -0.153 | -0.202
CUTA_O60888_96_LAACVNLIPQITSIYEWK (UniProt O60888) | -0.112 | -0.036
CTSS_P25774_320_GNHCGIASFPSYPEI (UniProt P25774) | 0.0751 | 0.00783
DCAF12_Q5T6F0_177_LPTLDPVCVGDDGHK (UniProt Q5T6F0) | -0.083 | -0.146
CTR9_Q6PD62_511_LYEAMCEFHEAEK (UniProt Q6PD62) | -0.016 | 0.0888
DAZAP1_Q96EP5_63_FKDPNCVGTVLASRPHTLDGR (UniProt Q96EP5) | 0.15 | 0.0131
CUL4A_Q13619_241_FLEETNCLYAAEGQR (UniProt Q13619) | -0.104 | 0.0615
CXCR2_P25025_286_TQVIQETCER (UniProt P25025) | -0.0177 | 0.301
CUL1_Q13616_496_QACGFEYTSK (UniProt Q13616) | 0.0722 | -0.0615
DAXX_Q9UER7_106_AHSLFLASAEFCNILSR (UniProt Q9UER7) | 0.131 | 0.167
CXXC1_Q9P0U4_181+184+187_TEDCGHCDFCR (UniProt Q9P0U4) | -0.0641 | -0.57
CUL4A_Q13619_379_DKVDHVIEVCFQK (UniProt Q13619) | -0.0194 | 0.428
CUTC_Q9NTM9_223_ILEGSGATEFHCSAR (UniProt Q9NTM9) | 0.127 | 0.0638

Target | probe-labelled cysteine peptide fold change (10 µM) | probe-labelled cysteine peptide fold change (50 µM)
CYC1_P08574_139_HLVGVCYTEDEAK (UniProt P08574) | 0.151 | 0.348
DCAF1_Q9Y4B6_521_HTCMALR (UniProt Q9Y4B6) | -0.162 | 0.185
DAZAP1_Q96EP5_63_DPNCVGTVLASR (UniProt Q96EP5) | 0.251 | 0.642
DCTD_P32321_40_DPNSQVGACIVNSENK (UniProt P32321) | 0.0273 | 0.408
CXXC1_Q9P0U4_420_IQQWQQSPCIAEEHGKK (UniProt Q9P0U4) | -0.0831 | -0.307
DCAF13_Q9NV06_330_RMQHVICVK (UniProt Q9NV06) | 0.29 | 0.472
CYBB_P04839_369_IVGDWTEGLFNACGCDK (UniProt P04839) | -0.0879 | 0.149
CXXC1_Q9P0U4_169+172+175_MCGECEACR (UniProt Q9P0U4) | -0.00812 | -0.677
DCAF1_Q9Y4B6_967_ERPSPCNGR (UniProt Q9Y4B6) | -0.152 | -0.733
CYB5R3_P00387_274_DHLPPPEEEPLVLMCGPPPMIQYACLPNLDHVGHPTER (UniProt P00387) | 0.0156 | 0.273
CTR9_Q6PD62_309_VQHLALHAFHNTEVEAMQAESCYQLAR (UniProt Q6PD62) | 0.213 | 0.0318
CYB5R4_Q7L1T6_278_CQLISK (UniProt Q7L1T6) | -0.0627 | -0.00326
CUL3_Q13618_298_TEDLGCMYK (UniProt Q13618) | -0.203 | -0.102
DAP3_P51398_139_TLSLCHVIHFCAK (UniProt P51398) | -0.0146 | -0.0743
CUL4B_Q13620_248_YNLEELYQAVENLCSYK (UniProt Q13620) | 0.317 | 0.245
CTSB_P07858_211_ICEPGYSPTYK (UniProt P07858) | -0.116 | -0.331
DCAF6_Q58WW2_190_EDCKDDILINCR (UniProt Q58WW2) | 0.117 | -0.0419
DCP2_Q8IU60_73_AVFSHCPFLLPQGEDVEK (UniProt Q8IU60) | 0.225 | -0.158
CXXC1_Q9P0U4_564_VPADEVCGCPLVR (UniProt Q9P0U4) | 0.111 | -0.109
DCTN1_Q14203_81_YFTCDEGHGIFVR (UniProt Q14203) | 0.127 | 0.127
CTSV_O60911_211_ENGGLDSEESYPYVAVDEICK (UniProt O60911) | -0.431 | -0.244

Full records as entered above:
DCAF6_Q58WW2_190_EDCKDDILINCR (UniProt Q58WW2) as listed: probe-labelled cysteine peptide fold change (10 µM) = 0.117; probe-labelled cysteine peptide fold change (50 µM) = -0.0419
CXXC1_Q9P0U4_564_VPADEVCGCPLVR (UniProt Q9P0U4) as listed: probe-labelled cysteine peptide fold change (10 µM) = 0.111; probe-labelled cysteine peptide fold change (50 µM) = -0.109
CYC1_P08574_139_HLVGVCYTEDEAK (UniProt P08574) as listed: probe-labelled cysteine peptide fold change (10 µM) = 0.151; probe-labelled cysteine peptide fold change (50 µM) = 0.348
DCAF13_Q9NV06_330_RMQHVICVK (UniProt Q9NV06) as listed: probe-labelled cysteine peptide fold change (10 µM) = 0.29; probe-labelled cysteine peptide fold change (50 µM) = 0.472

Later entries.

Target | probe-labelled cysteine peptide fold change (10 µM) | probe-labelled cysteine peptide fold change (50 µM)
CYLD_Q9NQC7_934_RIQGCAR (UniProt Q9NQC7) | -0.0418 | -0.316
CTSD_P07339_286_AYWQVHLDQVEVASGLTLCK (UniProt P07339) | 0.0862 | -0.0819
DARS2_Q6PI48_590_LICLVTGSPSIR (UniProt Q6PI48) | 0.0443 | 0.892
CTSG_P08311_207_AAFKGDSGGPLLCNNVAHGIVSYGK (UniProt P08311) | -0.329 | -0.817
CYTH4_Q9UIA0_49_LKDEIADVFAQIDCFESAEESR (UniProt Q9UIA0) | 0.4 | 0.0852
CTSD_P07339_117_LLDIACWIHHK (UniProt P07339) | -0.11 | -0.147
CTSA_P10619_241_LWSSLQTHCCSQNK (UniProt P10619) | 0.0659 | 0.0865
DCTN4_Q9UJW0_280_KCEHNLSKPEFNPTSIK (UniProt Q9UJW0) | -0.0511 | -0.0509
DAZAP1_Q96EP5_124_IFVGGIPHNCGETELR (UniProt Q96EP5) | -0.0141 | 0.171
DCAF13_Q9NV06_342_YIMCGSDEMNIR (UniProt Q9NV06) | -0.0629 | 0.0402
CYB5R3_P00387_284_APEAWDYGQGFVNEEMIRDHLPPPEEEPLVLMCGPPPMIQYACLPNLDHVGHPTER (UniProt P00387) | -0.228 | -0.849
DARS2_Q6PI48_202_EYLCNLHGFVDIETPTLFK (UniProt Q6PI48) | 0.153 | 0.438
CXorf38_Q8TB03_24_AGHCLLLLR (UniProt Q8TB03) | -0.243 | -0.159
CUL4A_Q13619_633_TLQSLACGK (UniProt Q13619) | -0.232 | -0.0564
DBR1_Q9UK59_36+37_GPGPVDLLLCCGDFQAVR (UniProt Q9UK59) | -0.197 | -0.29
DCAF12_Q5T6F0_253_EDTNPDNCK (UniProt Q5T6F0) | -0.303 | -0.538
DBR1_Q9UK59_9_VAVAGCCHGELDK (UniProt Q9UK59) | -0.043 | -0.372
CUL4B_Q13620_533_DKVDHIIDICFLK (UniProt Q13620) | 0.0105 | 0.479
DCTN6_O00399_18_IAPGAVVCVESEIR (UniProt O00399) | -0.272 | 0.0612
DCTD_P32321_83_LDTKYPYVCHAELNAIMNK (UniProt P32321) | -0.129 | -0.614
DCTN5_Q9BTE1_97_GVAFFPLHIGDHVFIEEDCVVNAAQIGSYVHVGK (UniProt Q9BTE1) | 0.24 | 0.2

Target | probe-labelled cysteine peptide fold change (10 µM) | probe-labelled cysteine peptide fold change (50 µM)
DCLK2_Q8N568_288_YAQDDFVLDHSECR (UniProt Q8N568) | -0.141 | 0.0213
CTSB_P07858_108_EIRDQGSCGSCWAFGAVEAISDR (UniProt P07858) | -0.117 | -0.328
CUL4B_Q13620_297_CWQNHCR (UniProt Q13620) | 0.0578 | 0.185
DCK_P27707_9_SCPSFSASSEGTR (UniProt P27707) | -0.0377 | -0.419
CYTH4_Q9UIA0_329_KPFCLELYNPSCR (UniProt Q9UIA0) | -0.00483 | -0.449
CTSH_P09668_272_TGIYSSTSCHK (UniProt P09668) | 0.176 | -0.114
DCAF12L1_Q5VU92_150_LAQDQQGCGIHAIELNPSK (UniProt Q5VU92) | -0.214 | -0.239
CTSB_P07858_179_GLVSGGLYESHVGCR (UniProt P07858) | 0.0761 | -0.0534
CUL9_Q8IWT3_1725_CLPTEFCDALDR (UniProt Q8IWT3) | -0.147 | -0.209
DCLRE1C_Q96SD1_34_AYFLSHCHK (UniProt Q96SD1) | -0.0775 | -0.167
CTSC_P53634_448_RGTDECAIESIAVAATPIPK (UniProt P53634) | -0.102 | 0.0228
DARS2_Q6PI48_459_LRLECADLLETR (UniProt Q6PI48) | -0.0844 | 0.185
DCUN1D1_Q96GG9_131_QEFMDGMTELGCDSIEK (UniProt Q96GG9) | 0.0558 | 0.234
CTSC_P53634_355_YYSSEYHYVGGFYGGCNEALMK (UniProt P53634) | 0.171 | 0.075
CUL7_Q14999_1106_LTHLLVHVEPCEAPPPVVATPR (UniProt Q14999) | -0.256 | -0.365
DCAF8_Q5TAQ9_256_FLPNSGDSTLAMCAR (UniProt Q5TAQ9) | -0.0556 | -0.22
CWF19L1_Q69YN2_426_SHHLQLQVIPVPISCSTTDDIK (UniProt Q69YN2) | -0.0713 | 0.248
CTSG_P08311_142_AQEGLRPGTLCTVAGWGR (UniProt P08311) | -0.0347 | -0.0423
CTSZ_Q9UBR2_33_RGQTCYRPLR (UniProt Q9UBR2) | -0.262 | -0.237
DCTN1_Q14203_636_FELSENCSERPGLR (UniProt Q14203) | -0.207 | -0.0675
CXXC1_Q9P0U4_486_QQAVREDEESNEGDSDDTDLQIFCVSCGHPINPR (UniProt Q9P0U4) | 0.0725 | -0.265
